Test results as given in PubChem BioAssay AID504834 (National Center for Advancing Translational Sciences (NCATS), 2011).
About 22,000 (6.9%) of roughly 320,000 compounds were called active. Inconclusive means that the source gave no clear call. Such entries were picked first, then a sample of the others. The call rests on the fitted dose curve; in most records, active means well fitted inhibition curve with a large enough effect; inconclusive means small, poorly fitted or top-dose-only effect, or another doubt; inactive means no such curve, though single readings can be large or run the other way. Where the call is inconclusive, the potency comes from a doubtful curve fit.

assay: Primary qHTS for delayed death inhibitors of the malarial parasite plastid, 96 hour incubation; settings: P. falciparum luciferase reporter growth; series mostly up to 28.7 µM; activity change, negative = inhibition: at the top concentration
Summary of the method: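 Cell-based qHTS: luciferase-tagged P. falciparum in erythrocytes (2% hematocrit, 0.05% parasitemia final) incubated with compounds for 96 hours, 37 C, 5% CO2; luciferase detection reagent then added and luminescence measured.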
On the % scale 0 is the no-effect control and ±100 the full control effect; potency means the concentration at half of the fitted maximal effect.

Compound | activity change, negative = inhibition | Potency
Cc1ccc(N(C(=O)c2csnn2)C(C(=O)NC2CCCC2)c2ccccn2)c(C)c1 (stereo not drawn) | inactive: -8.28% | 
CCOC(=O)N1CCN(CC(O)COc2ccccc2[N+](=O)[O-])CC1 (stereo not drawn) |  | inconclusive: 10.4 µM [inhibitor, partial curve, poor fit]
CCC(=O)N1c2ccc(S(=O)(=O)N3CCN(CC)CC3)cc2CC1C (stereo not drawn) |  | inconclusive: 18.5 µM [inhibitor, single point]
CC(=O)NS(=O)(=O)c1ccc(NC(=O)C2c3ccccc3Oc3ccccc32)cc1 |  | inconclusive: 5.22 µM [inhibitor, partial curve]
COc1ccc(-n2ncc3c(NCCCn4ccnc4)ncnc32)cc1 |  | inconclusive: 10.4 µM [inhibitor, single point]
C#CCOc1ccc2c(c1)c(C(C)=O)c(C)n2Cc1ccccc1 |  | inconclusive: 10.4 µM [inhibitor, partial curve, poor fit]
CS(=O)(=O)N(CCc1ccccc1)CC(=O)Nc1ccc2c(c1)OCO2 | inactive: 0.11% | 
CCCn1c(SCC(=O)NC)nnc1C(C)C | inactive: -5.27% | 
Cc1ccc(S(=O)(=O)CC(c2ccccc2)N2CCOCC2)cc1 (stereo not drawn) |  | active: 9.28 µM
CC12CC(NC(=O)N1c1cccc(C(=O)N3CCCCC3)c1)c1ccccc1O2 (stereo not drawn) |  | inconclusive: 13.1 µM [inhibitor, partial curve, poor fit]
CCCSC(=S)c1c(C)[nH]n(-c2ccccc2)c1=O | inactive: -13.6% | 
CCNC(=O)NC(=O)C(C)N1C(=O)NC(c2ccccc2)(c2ccccc2)C1=O (stereo not drawn) | inactive: 38.5% | 
COc1ccc(NC(=S)NNc2ccc(S(=O)(=O)Nc3ccccc3C(=O)O)cc2[N+](=O)[O-])cc1 | inactive: -23.7% | 
CCCCCC1CC(CC(C)C(=O)Nc2nncs2)C(=O)O1 (stereo not drawn) |  | inconclusive: 8.28 µM [inhibitor, partial curve, poor fit]
O=C(N/N=C/c1ccccc1F)c1ccccc1OCc1ccccc1 | inactive: 9.9% | 
Cc1ccccc1NC(=O)Cn1c(=O)n(Cc2ccccc2)c(=O)c2c(C)c(C)sc21 |  | inconclusive: 10.4 µM [inhibitor, single point]
CN(C)c1ccc(C(=O)c2ccccc2C(=O)O)c(O)c1 |  | inconclusive: 14.7 µM [inhibitor, single point]
COc1ccc(-c2csc(NC(=O)c3ccc(OCC(=O)N4CCOCC4)c(OC)c3)n2)cc1OC |  | inconclusive: 1.31 µM [inhibitor, partial curve, poor fit]
Cc1ccc(Cn2c(SCC(=O)N(C)C3CCS(=O)(=O)C3)nc3ccccc3c2=O)cc1 (stereo not drawn) |  | inconclusive: 11.7 µM [inhibitor, partial curve, poor fit]
COc1cccc(NC(=O)C2CCCN(S(=O)(=O)c3ccc(-n4cnnn4)cc3)C2)c1 (stereo not drawn) |  | inconclusive: 20.8 µM [inhibitor, single point]
CCN(CC(=O)Nc1cc(Cl)ccc1C)C(=O)C1CCCCC1 | inactive: -24.7% | 
COc1ccccc1NC(=O)N1CCCC(C(=O)Nc2cccc(C)c2C)C1 (stereo not drawn) |  | active: 8.28 µM
CCN1C(=O)[C@@H]2[C@@H](c3ccc(-c4ccc5c(c4)OCO5)c(OC)c3)N3CCC[C@@]3(C(=O)OC)[C@@H]2C1=O |  | inconclusive: 13.1 µM [inhibitor, single point]

Compound | activity change, negative = inhibition | Potency
CCOC(=O)c1c(NC(=O)C2C3CCC(O3)C2C(=O)O)sc2c1CCC(CC)C2 (stereo not drawn) |  | inconclusive: 0.0052 µM [inhibitor, full curve, poor fit]
C[C@H]1CC[C@@H]2[C@@H](C)[C@H]3[C@H](C[C@H]4[C@@H]5CC=C6C[C@@H](O[C@@H]7O[C@H](CO)[C@H](O)[C@H](O[C@@H]8O[C@H](CO)[C@@H](O)[C@H](O)[C@H]8O)[C@H]7O[C@@H]7O[C@@H](C)[C@H](O)[C@@H](O)[C@H]7O)CC[C@]6(C)[C@H]5CC[C@]34C)N2C1 | inactive: -9.94% | 
O=C(Nc1ccc2c(c1)CCC2)c1cc(F)cc(F)c1 | inactive: 179% | 
O=C(NNC(=O)c1ccccc1C(=O)O)c1cc2ccccc2o1 | inactive: 93.8% | 
O=C(CCCCCNc1nc(=S)[nH]c2ccccc12)NCCc1ccc(Cl)cc1 |  | inconclusive: 10.4 µM [inhibitor, single point]
FC(F)(F)c1ccc(-c2nnc(-c3ccccn3)c(-c3ccccn3)n2)nc1 | inactive: 29.6% | 
Cc1ccc(S(=O)(=O)N2CCCC2CNC(=O)C(=O)NCc2cccs2)cc1 (stereo not drawn) |  | inconclusive: 11.7 µM [inhibitor, partial curve, poor fit]
CCS(=O)(=O)N1Cc2ccccc2CC1C(=O)Nc1nnc(SCc2ccc(F)cc2)s1 (stereo not drawn) |  | inconclusive: 18.5 µM [inhibitor, single point]
O=C(CSc1nc(O)c(Cc2ccccc2)c(=O)[nH]1)Nc1nnc(SCc2ccccc2)s1 |  | inconclusive: 18.5 µM [inhibitor, single point]
Cn1c(CC(=O)NNC(=O)c2ccccc2F)nc2ccccc21 |  | inconclusive: 18.5 µM [inhibitor, single point]
C/C(N)=C(/C#N)C(=O)CSc1nnc(Nc2c(C)cccc2C)s1 |  | active: 11.7 µM
S=C(NCCCc1ccccc1)Nc1ccccc1 | inactive: -4.73% | 
CCOC(=O)c1nn(-c2ccc(C)c(Cl)c2)c(=O)c(C#N)c1C |  | inconclusive: 9.28 µM [inhibitor, single point]
CCN(CC(=O)Nc1ccc(OC)cc1)CC(=O)N1CC(=O)Nc2ccccc21 |  | inconclusive: 18.5 µM [inhibitor, single point]
O=C(c1ccc(N2CCN(S(=O)(=O)c3ccccc3)CC2)c([N+](=O)[O-])c1)N1CCOCC1 | inactive: -23.9% | 
CCOC(=O)N1CCN(C(=O)c2cc(S(=O)(=O)N3CCc4ccccc43)ccc2OC)CC1 |  | inconclusive: 9.28 µM [inhibitor, partial curve, poor fit]
CCCCCc1c(C)nc(N2CCOCC2)[nH]c1=O |  | active: 8.28 µM
O=C(/C=C/c1ccccc1)N(Cc1cccs1)C1CCS(=O)(=O)C1 (stereo not drawn) |  | inconclusive: 18.5 µM [inhibitor, single point]
O=C(CSc1nnc(COc2ccc(Cl)cc2)o1)N1c2ccccc2CCc2ccccc21 |  | inconclusive: 0.415 µM [inhibitor, full curve, poor fit]
COc1cc(CNC2CCCCCCC2)cc(Br)c1OCC#N | inactive: -102% | 
CC(=O)c1sc2c(c1N)c(=O)[nH]c(=O)n2-c1ccccc1 | inactive: 9.06% | 
CC1CCCCC12NC(=O)N(CC(=O)Nc1cccc(S(=O)(=O)N3CCCCC3)c1)C2=O (stereo not drawn) |  | inconclusive: 14.7 µM [inhibitor, partial curve, poor fit]
COc1ccc(OC)c(S(=O)(=O)N2CCC(C(=O)NCc3ccc4c(c3)OCO4)CC2)c1 |  | inconclusive: 18.5 µM [inhibitor, single point]

Not a retest: an excerpt of the list.
Compound | activity change, negative = inhibition | Potency
CCOC(=O)c1c(NC(=O)C2C3CCC(O3)C2C(=O)O)sc2c1CCC(CC)C2 (stereo not drawn) |  | inconclusive: 0.0052 µM [inhibitor, full curve, poor fit]
C[C@H]1CC[C@@H]2[C@@H](C)[C@H]3[C@H](C[C@H]4[C@@H]5CC=C6C[C@@H](O[C@@H]7O[C@H](CO)[C@H](O)[C@H](O[C@@H]8O[C@H](CO)[C@@H](O)[C@H](O)[C@H]8O)[C@H]7O[C@@H]7O[C@@H](C)[C@H](O)[C@@H](O)[C@H]7O)CC[C@]6(C)[C@H]5CC[C@]34C)N2C1 | inactive: -9.94% | 
O=C(Nc1ccc2c(c1)CCC2)c1cc(F)cc(F)c1 | inactive: 179% | 
O=C(NNC(=O)c1ccccc1C(=O)O)c1cc2ccccc2o1 | inactive: 93.8% | 
O=C(CCCCCNc1nc(=S)[nH]c2ccccc12)NCCc1ccc(Cl)cc1 |  | inconclusive: 10.4 µM [inhibitor, single point]

Remaining list, next part:

Compound | activity change, negative = inhibition | Potency
CCN(CC)CCn1c(NCc2cccc(OC)c2)nc2ccccc21 |  | inconclusive: 18.5 µM [inhibitor, single point]
CCCC(c1nnnn1CCOC)N(Cc1cc2cc(C)c(C)cc2[nH]c1=O)CC1CCCO1 (stereo not drawn) |  | inconclusive: 4.15 µM [inhibitor, full curve]
O=C(CC(C(=O)O)c1ccc(Cl)cc1)c1ccccc1 (stereo not drawn) | inactive: -1.19% | 
COc1cc(/C=C(\NC(C)=O)C(=O)NC(C)(C)CC(C)(C)C)ccc1OC(C)=O |  | inconclusive: 11.7 µM [inhibitor, single point]
O=C(O)C(=O)/C(=C\c1cccc(Cl)c1)c1ccc2ccccc2n1 | inactive: 196% | 
O=c1c(O)c(-c2cc(O)c(O)c(O)c2)oc2cc(O)cc(O)c12 | inactive: -16.6% | 
CC(=O)N1CCC(=NNc2ccc(S(=O)(=O)N3CCOCC3)cc2[N+](=O)[O-])CC1 |  | inconclusive: 10.4 µM [inhibitor, partial curve]
CCc1ccccc1Nc1nc(N)nc(COC(=O)c2cccn2C)n1 | inactive: 11.7% | 
CC1CN=C(Nc2ccc(N(C)C)cc2)S1 (stereo not drawn) |  | active: 2.08 µM
COc1ccccc1-c1sc2cc3c(cc2c1C#CC1(O)CCCCC1)OCO3 |  | active: 4.65 µM
Cc1ccc(S(=O)(=O)NCC(=O)N/N=C/c2ccc(Cl)cc2)cc1 |  | inconclusive: 18.5 µM [inhibitor, single point]
CCOC(=O)c1ccc(NC(=O)CSC(=S)N2CCOCC2)cc1 | inactive: -17.1% | 
CSc1nc2ccc(NC(=O)C3CC(=O)N(Cc4ccccc4)C3)cc2s1 (stereo not drawn) |  | inconclusive: 13.1 µM [inhibitor, single point]
COCCCn1c(-c2ccc(Cl)cc2)n[nH]c1=S |  | inconclusive: 2.62 µM [inhibitor, full curve, poor fit]
COc1ccc(-c2nnc(NC(=O)CS(=O)(=O)c3ccc(F)cc3)o2)cc1 | inactive: -8.32% | 
CCOc1ccc(NC(=O)Cc2c(C(=O)O)n(C)c3ccccc23)cc1 | inactive: 36% | 
Cc1noc(NS(=O)(=O)c2ccc(NC(=O)C(C)(C)C)cc2)c1C |  | inconclusive: 3.29 µM [inhibitor, partial curve]
COc1ccc(NC(=O)c2cc(C)cc(C)c2)cc1[N+](=O)[O-] |  | inconclusive: 1.17 µM [inhibitor, partial curve, poor fit]
CCOc1ccc(N(CC(=O)NC2CCCCC2)C(=O)CCCC(=O)Nc2ccccn2)cc1 |  | inconclusive: 13.1 µM [inhibitor, single point]
Cc1c(NS(=O)(=O)c2ccc(Br)cc2)c(=O)n(-c2ccccc2)n1C |  | inconclusive: 18.5 µM [inhibitor, single point]
CC(=O)c1c(C(C)=O)c(C)n(-c2nc(-c3ccc(Br)cc3)c(C)s2)c1C |  | inconclusive: 10.4 µM [inhibitor, single point]
Cc1ccc2nc(C)cc(OCC(=O)O)c2c1 |  | inconclusive: 11.7 µM [inhibitor, single point]
